Laboratory results taken from the supplement of paper PMC3334620.
Over roughly 33,000 sequences, “E-score (-0.5 to 0.5)” has its median near -0.0059; the highest 2% begin near 0.26. Some of the results follow.

molecular target: T1, Cin5 (UniProt P40917); assay: PBM E-score (8-mer binding enrichment) (E-score (-0.5 to 0.5)); higher = stronger / more preferred TF binding; conditions: protein concentration: 100 nM; construct: GST-full length
T1 sequence: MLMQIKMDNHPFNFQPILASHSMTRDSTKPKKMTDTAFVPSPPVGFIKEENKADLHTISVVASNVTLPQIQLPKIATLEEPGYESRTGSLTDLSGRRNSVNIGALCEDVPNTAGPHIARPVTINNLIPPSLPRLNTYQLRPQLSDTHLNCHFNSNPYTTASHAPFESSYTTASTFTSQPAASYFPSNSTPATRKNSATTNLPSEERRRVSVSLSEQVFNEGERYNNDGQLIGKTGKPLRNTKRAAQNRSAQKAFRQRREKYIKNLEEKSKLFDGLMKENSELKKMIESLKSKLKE
How it was run: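 Universal all-10-mer Agilent arrays, fresh or stripped once, were converted to double-stranded form by primer extension. GST-tagged yeast transcription factors from PURExpress in vitro transcription/translation, full-length or DNA-binding domain only, were applied at about 100-200 nM and detected with fluorescent anti-GST. After masliner normalisation, the Universal PBM Analysis Suite scored each ungapped eight-base word together with its reverse complement by E-score.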

| Sequence | PBM E-score |
| --- | --- |
| ATCAACAC | 0.191 |
| ACATCTAG | 0.101 |
| TCTAGACA | 0.0397 |
| CTGAAAGA | -0.137 |
| CCGTGCGA | 0.0387 |
| ATCGGGCC | -0.133 |
| GCGAGTCC | -0.157 |
| CTGTCGCC | 0.0178 |
| CGCCTGGA | -0.0759 |
| GAGCTCTA | 0.0676 |
| CTTGAGCC | -0.241 |
| AATCAACA | 0.348 |
| ACGTAAGA | 0.347 |
| TAATTCAA | 0.0887 |
| GACTCGAA | -0.184 |
| GATGGCGC | -0.099 |
| CGTGGATC | 0.0485 |
| ATAGGCAT | -0.0318 |
| CTGTCAAA | -0.0972 |
| GTCACACA | 0.0464 |
| ACTACTAT | 0.26 |
| CACTTTGG | 0.00445 |
| TCGATAAA | 0.0574 |
| CATCTAAG | 0.0787 |
| AGACCTAC | -0.178 |

| Sequence | PBM E-score |
| --- | --- |
| AGGGGTTA | -0.062 |
| GCCTTCAC | -0.0734 |
| CAAATTGG | 0.177 |
| AAATGGGA | -0.0605 |
| GCGAAAAA | 0.152 |
| AGACGGCC | -0.13 |
| CCTAGCTC | -0.124 |
| TAATCGAA | 0.241 |
| AGACCCTG | -0.0767 |
| AACATGCA | 0.151 |
| GGTTTTAA | 0.0958 |
| CCACTGCA | -0.0478 |
| CAAGATGG | -0.0761 |
| GGCTTGAA | -0.0909 |
| CCAACCCG | -3e-05 |
| GGTGTGAA | 0.133 |
| CGTTGCAG | -0.141 |
| CCTAATAG | -0.0619 |
| ACATTAGA | -0.107 |
| GTGCTTTA | 0.03 |
| CACACATG | -0.103 |
| GAGAGCGA | -0.0892 |
| CCTTTGCC | -0.191 |
| AATTCGTA | 0.0723 |
| CCGGTTGC | 0.00629 |

| Sequence | PBM E-score |
| --- | --- |
| ACACCGTG | -0.204 |
| AATGGCGA | 0.203 |
| AGTTGGAT | 0.0885 |
| CGACATAC | 0.104 |
| AGTTACAC | 0.154 |
| GCAGGATA | 0.00852 |
| GACGGCAC | -0.212 |
| ATATAGAG | 0.052 |
| CAGAATCG | 0.00783 |
| ACCTCCTA | -0.291 |
| ATTCCCTC | -0.06 |
| AAGCGGGT | -0.0601 |
| GAACAGAA | 0.0474 |
| CCTTAAGA | -0.132 |
| GTAAAGTA | 0.305 |
| AACCAGAG | -0.0306 |
| CAAGTGTC | -0.0882 |
| GCACGACC | -0.188 |
| CCAATGTA | -0.0976 |
| CGTTACTC | -0.175 |
| CCGGTTAA | -0.0923 |
| CGCAGGTA | -0.101 |
| AGCCGGAC | 0.0365 |
| CGCCCCCC | -0.39 |
| GGGGAGAA | -0.0915 |

| Sequence | PBM E-score |
| --- | --- |
| ATTTATAC | 0.253 |
| AATTGGCC | 0.0108 |
| GCCTTCCA | -0.0984 |
| TATCATGA | 0.0928 |
| GACCCGAC | -0.102 |
| CCAAACGG | -0.0382 |
| ACCTTATA | 0.0747 |
| ACCTAGAA | 0.00041 |
| ATACAGCG | -0.0913 |
| CTTATAAC | 0.191 |
| ACGAGTAA | 0.214 |
| GCTCAGTA | 0.0273 |
| AAAGTTTG | 0.122 |
| CTACCCAC | -0.0866 |
| CTCGGCCA | -0.0115 |
| ACAATTCA | 0.0301 |
| TCCTGTAA | 0.0685 |
| ATGTATTC | 0.104 |
| ACACCTGC | 0.153 |
| CTGCGAGA | -0.332 |
| ACCTACTG | -0.0553 |
| ACTGCTGG | -0.217 |
| CGTGCACC | -0.165 |
| GATCACCC | -0.0358 |
| CGGAATTC | 0.12 |

| Sequence | PBM E-score |
| --- | --- |
| ACCGTGCC | -0.119 |
| CTTATTAC | 0.236 |
| CCCGGGCG | -0.133 |
| ACGTACTG | -0.0153 |
| CACGTAGG | -0.128 |
| ACGTGCTC | -0.119 |
| CAGAAGCA | 0.0999 |
| ATACTAAC | 0.166 |
| ACGGCTCA | 0.0209 |
| AGCGAGAA | -0.0355 |
| ACGTATCG | -0.015 |
| CGCAGTGC | -0.175 |
| TCAACAGA | 0.106 |
| TAGACCGA | -0.0533 |
| CCTCATTC | 0.0225 |
| ATGCGTCA | 0.00854 |
| GCCTAATA | 0.0511 |
| ATCGTATG | 0.156 |
| CTATAAAA | -0.0202 |
| CCAACGAA | 0.0174 |
| CTGAACCC | -0.0956 |
| GCGACAAC | 0.0474 |
| AAGTAACC | 0.106 |
| GTACTCCA | -0.091 |
| GAATTCTA | 0.0978 |

| Sequence | PBM E-score |
| --- | --- |
| GAAGTTCC | -0.13 |
| ATGTTGTC | 0.138 |
| CGAACCCC | -0.127 |
| AGGTGCGC | -0.195 |
| CCACAAGA | -0.0338 |
| CACGACAC | -0.121 |
| CCGGCGGC | -0.0806 |
| AGACACAC | -0.0299 |
| ATAGCATG | -0.102 |
| GGATAAAA | 0.157 |
| AGTGGACA | 0.0344 |
| AGTTCAGG | -0.0235 |
| CGGGATAA | 0.219 |
| CACCTCCG | -0.114 |
| CACTAGAA | -0.0106 |
| CGAATTTC | 0.158 |
| CCTTTGGC | -0.223 |
| ATCTAGCG | -0.0816 |
| GTCCGAAC | -0.176 |
| AGGGGCAC | -0.217 |
| CGCGTATA | -0.0479 |
| CGGATTAA | 0.115 |
| CCGTGGAC | -0.221 |
| CACAAACG | 0.113 |
| GCAACTAC | 0.0148 |

Individual results from the entries so far.
For PBM E-score, CCGGCGGC has the entry -0.0806
For PBM E-score, ATGTTGTC has the entry 0.138
For PBM E-score, AGACACAC has the entry -0.0299
For PBM E-score, AGGTGCGC has the entry -0.195
For PBM E-score, CACCTCCG has the entry -0.114

More records.

| Sequence | PBM E-score |
| --- | --- |
| CGAGGAGC | -0.245 |
| CACGGGCC | -0.296 |
| TAGAACAA | -0.0301 |
| CACGACTA | -0.232 |
| GCTAGCCA | -0.00387 |
| GTTACCGA | -0.119 |
| CTCTATGC | 0.0465 |
| AACAACTA | 0.0774 |
| TCCAGCGA | -0.0733 |
| CACCGTAG | -0.231 |
| ACTCCTAT | -0.0355 |
| CGGGTACA | -0.185 |
| CGCCCGCG | -0.0704 |
| CGTTGGTC | -0.0699 |
| CCTTTCGC | 0.0567 |
| CTACTCTC | -0.116 |
| GGCCTATA | -0.255 |
| CCATCGCA | -0.0392 |
| AATTTTAG | -0.034 |
| AGTGCGGC | -0.129 |
| ATACGCTC | 0.071 |
| ACCTTCAA | -0.0086 |

5 records drawn at random from the list so far:

| Sequence | PBM E-score |
| --- | --- |
| ACCTAGAA | 0.00041 |
| GGATAAAA | 0.157 |
| CACGTAGG | -0.128 |
| CACAAACG | 0.113 |
| CTTATAAC | 0.191 |
